Reference: patent publication US20090142855A1
These are yes or no findings as the source states them, for the method shown. Some results given as binding are weak or reduced against the parent protein; the word gives no strength.

Amino acid sequences for entries named in this document (tags omitted). Residues count along the entry.
UniProt Q5VWK5, residues 24-353: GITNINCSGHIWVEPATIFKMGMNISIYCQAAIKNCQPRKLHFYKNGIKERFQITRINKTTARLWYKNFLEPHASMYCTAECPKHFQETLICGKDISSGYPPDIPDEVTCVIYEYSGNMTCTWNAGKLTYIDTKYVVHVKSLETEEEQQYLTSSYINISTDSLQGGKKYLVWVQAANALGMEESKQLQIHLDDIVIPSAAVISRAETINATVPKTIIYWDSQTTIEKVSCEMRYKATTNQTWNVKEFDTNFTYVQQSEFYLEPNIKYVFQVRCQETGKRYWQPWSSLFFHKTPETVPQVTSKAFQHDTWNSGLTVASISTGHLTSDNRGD

Assays:
[1] = biological target: human IL23R Fc fusion protein (human) (UniProt Q5VWK5); assay: ELISA, receptor-Fc coated on plate, titration of cytokine, detection with anti-human p40 monoclonal antibodies
[2] = biological target: human IL23R Fc fusion protein (human) (UniProt Q5VWK5); assay: ELISA

binding [1]: binds
binding [2]: binds
B1: cynomolgus IL-23 (single chain: cyno p40 - 2 bovine elastin motifs - cyno p19) (ligand)
chain: IWELKKDVYVVELDWYPDAPGEMVVLTCDTPEEDGITWTLDQSGEVLGSGKTLTIQVKEFGDAGQYTCHKGGEALSHSLLLLHKKEDGIWSTDVLKDQKEPKNKTFLRCEAKNYSGRFTCWWLTTISTDLTFSVKSSRGSSNPQGVTCGAVTLSAERVRGDNKEYEYSVECQEDSACPAAEERLPIEVMVDAIHKLKYENYTSSFFIRDIIKPDPPKNLQLKPLKNSRQVEVSWEYPDTWSTPHSYFSLTFCIQVQGKSKREKKDRIFTDKTSATVICRKNASFSVQAQDRYYSSSWSEWASVPCSVPGVGVPGVGRAVPGGSSPAWAQCQQLSQKLCTLAWSAHPLVGHMDLREEGDEETTNDVPHIQCGDGCDPQGLRDNSQFCLQRIRQGLIFYEKLLGSDIFTGEPSLLPDSPVGQLHASLLGLSQLLQPEGHHWETQQIPSPSPSQPWQRLLLRFKILRSLQAFVAVAARVFAHGAATLSP
